Reference: doi:10.1101/2021.10.11.462297

Molecular target: T1, TRAIP-BirA*-HA (UniProt Q9BWF2)
T1 sequence: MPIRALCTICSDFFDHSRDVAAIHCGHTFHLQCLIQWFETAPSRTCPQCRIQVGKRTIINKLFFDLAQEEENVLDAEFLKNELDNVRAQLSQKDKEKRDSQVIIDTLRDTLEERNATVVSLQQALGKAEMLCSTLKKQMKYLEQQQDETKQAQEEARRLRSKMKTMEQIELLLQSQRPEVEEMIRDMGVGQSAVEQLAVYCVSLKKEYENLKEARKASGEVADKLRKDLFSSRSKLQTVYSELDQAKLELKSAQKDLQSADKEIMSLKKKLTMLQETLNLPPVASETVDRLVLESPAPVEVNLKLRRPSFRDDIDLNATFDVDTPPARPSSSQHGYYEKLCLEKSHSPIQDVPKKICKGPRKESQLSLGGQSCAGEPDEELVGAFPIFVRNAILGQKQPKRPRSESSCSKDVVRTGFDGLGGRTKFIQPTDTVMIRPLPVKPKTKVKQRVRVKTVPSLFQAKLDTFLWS
Experiment: proximity labelling

binding | Substance
binds | PRKDC (DNA-PKcs) (from UniProt P78527 1-4128)
binds | XRCC6 (Ku70) (from UniProt P12956 1-609)

The remaining lines, values behind:

Substance | binding
SMARCA5 (SNF2H), endogenous (from UniProt O60264 1-1052) | binds
AAA-ATPase VCP/p97 (from UniProt P55072 1-806) | binds
XRCC5 (Ku80), endogenous (from UniProt P13010 1-732) | binds

No constants are given. Whether binding was seen depends on the method and setting. Binding seen in cells or lysates may run through a third protein. Here binding means that the protein was enriched with, or labelled near, the bait; the list need not be complete. Sequences can lack the tags named with a protein.
